Taken from: PubChem BioAssay AID1159578 (Peter MacCallum Cancer Centre, 2015)
The whole screen tested about 18,000 reagents; below is an unselected part. About 1,030 of all reagents (5.7%) were called active. 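Inactive calls also include pools with fewer than 3300 nuclei, whose migration was not assessed.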 Raw values vary from plate to plate and are shown uncorrected. Unmarked entries are inactive. Further read-outs or replicates are left out here.

- Test: 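Genome-wide hunt for genes controlling movement of lymphatic endothelial cells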 (primary screen)
- Cells: human lymphatic endothelial cells
- Reagents: siRNA pool against human genes, 40 nM
- Duration: 48 h after transfection
- Measured: 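High-content imaging of dye-stained cells in a scratch assay measures filled wound area and nuclei per well; duplicate means given as ratio to mock and robust z-score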
- Scale: migration robust z-score: higher = faster migration into the scratch; nuclei per well: higher = more cells in the well
- Active means: 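Pools averaging fewer than 3300 nuclei are never called; remaining pools count as changed when migration robust z lies outside -2 to 2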
- Calls: active = migration changed; inactive = no migration change, or too few cells

What did the screen give for IRF9?
migration robust z-score: 0.65; nuclei per well, duplicate mean: 5876

What did the screen give for LILRB1?
migration robust z-score: -0.05; nuclei per well, duplicate mean: 4083

With CDH2, what does the deposit list?
migration robust z-score: -0.78; nuclei per well, duplicate mean: 5806

How did the screen score NOX3?
migration robust z-score: 0.78; nuclei per well, duplicate mean: 6354

With PRKAA1, how do the results read?
migration robust z-score: 0.7; nuclei per well, duplicate mean: 5658

With GABRR3, what does the deposit list?
migration robust z-score: 1.01; nuclei per well, duplicate mean: 5037

With ZFX, what was measured?
migration robust z-score: 0.14; nuclei per well, duplicate mean: 6768

For SMPD3, what was measured?
migration robust z-score: -0.73; nuclei per well, duplicate mean: 6762

For SDF2, what does the deposit list?
migration robust z-score: -0.68; nuclei per well, duplicate mean: 5272

What is on record for MED9?
migration robust z-score: -1.87; nuclei per well, duplicate mean: 2581

What did the screen give for MTPN?
migration robust z-score: 2.02 (active); nuclei per well, duplicate mean: 5871

What is on record for PNPO?
migration robust z-score: -0.13; nuclei per well, duplicate mean: 6435

How did the screen score LMNTD2?
migration robust z-score: 0.38; nuclei per well, duplicate mean: 6418

How did the screen score MT1B?
migration robust z-score: -0.54; nuclei per well, duplicate mean: 5018

3 entries from above, arranged by “migration robust z-score”, descending:
NOX3 | migration robust z-score = 0.78; nuclei per well, duplicate mean = 6354
PRKAA1 | migration robust z-score = 0.7; nuclei per well, duplicate mean = 5658
CDH2 | migration robust z-score = -0.78; nuclei per well, duplicate mean = 5806

The listing continues.
Which result is listed for GRIN1?
migration robust z-score: -0.9; nuclei per well, duplicate mean: 5753

With BCOR, how do the results read?
migration robust z-score: -0.58; nuclei per well, duplicate mean: 4732

Which result is listed for SHCBP1L?
migration robust z-score: -0.44; nuclei per well, duplicate mean: 5378

What did the screen give for ADCK5?
migration robust z-score: 0.08; nuclei per well, duplicate mean: 5622

How did the screen score CLDND1?
migration robust z-score: -0.39; nuclei per well, duplicate mean: 4774

With SCAP, what does the deposit list?
migration robust z-score: -1.01; nuclei per well, duplicate mean: 5878

For ASMT, what was measured?
migration robust z-score: -0.47; nuclei per well, duplicate mean: 5069
